According to US20260097097A1:
No constants are given. Whether binding was seen depends on the method and setting. Some binding calls cover weakened binding; strength is not graded here.

Protein sequences, listed by entry. Tags and fused reporters are not part of them. Lines headed by an entry give the natural chain unless they say otherwise; changes in a name come on top. Residues count along the entry.
UniProt P22004, residues 382-513: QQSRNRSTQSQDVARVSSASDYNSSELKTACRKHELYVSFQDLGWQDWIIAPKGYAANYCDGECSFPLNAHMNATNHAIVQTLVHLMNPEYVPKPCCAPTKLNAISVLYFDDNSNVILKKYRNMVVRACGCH
UniProt P27037: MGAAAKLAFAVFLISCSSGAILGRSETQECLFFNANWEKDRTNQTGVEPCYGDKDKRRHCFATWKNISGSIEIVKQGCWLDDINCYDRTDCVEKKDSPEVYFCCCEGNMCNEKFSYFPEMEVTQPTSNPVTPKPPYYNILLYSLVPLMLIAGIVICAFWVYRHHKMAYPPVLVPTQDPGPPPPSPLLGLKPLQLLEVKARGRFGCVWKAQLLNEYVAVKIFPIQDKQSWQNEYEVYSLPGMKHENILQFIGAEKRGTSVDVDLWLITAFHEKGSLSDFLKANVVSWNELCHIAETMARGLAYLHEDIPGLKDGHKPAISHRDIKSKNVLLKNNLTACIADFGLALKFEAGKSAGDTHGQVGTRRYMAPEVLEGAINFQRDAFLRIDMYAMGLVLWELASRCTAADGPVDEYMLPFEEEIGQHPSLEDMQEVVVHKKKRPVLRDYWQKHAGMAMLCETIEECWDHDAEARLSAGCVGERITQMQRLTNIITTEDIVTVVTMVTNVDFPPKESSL

Key:
BMP10 = molecular target: T1, BMP10 (UniProt O95393); experiment: similar Biacore binding assay
T1 sequence (looked up): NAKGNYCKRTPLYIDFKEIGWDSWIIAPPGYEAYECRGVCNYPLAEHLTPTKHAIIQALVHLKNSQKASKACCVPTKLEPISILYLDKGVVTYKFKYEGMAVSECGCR

BMP6 = BMP6 (UniProt P22004); experiment: similar Biacore binding assay
GDF8 = molecular target: T2, GDF8 (UniProt O14793); experiment: similar Biacore binding assay
T2 sequence (looked up): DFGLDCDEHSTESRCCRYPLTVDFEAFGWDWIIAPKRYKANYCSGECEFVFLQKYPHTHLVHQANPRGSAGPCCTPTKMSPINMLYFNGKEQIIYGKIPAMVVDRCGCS

activin B = molecular target: T3, activin B (UniProt P09529); experiment: similar Biacore binding assay
T3 sequence (looked up): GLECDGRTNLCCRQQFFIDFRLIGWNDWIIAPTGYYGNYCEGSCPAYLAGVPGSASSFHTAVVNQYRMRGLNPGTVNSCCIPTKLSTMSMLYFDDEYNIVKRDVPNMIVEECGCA

GDF11 = molecular target: T4, GDF11 (UniProt O95390); experiment: Biacore, ligand amine-coupled to CM5 chip
T4 sequence (looked up): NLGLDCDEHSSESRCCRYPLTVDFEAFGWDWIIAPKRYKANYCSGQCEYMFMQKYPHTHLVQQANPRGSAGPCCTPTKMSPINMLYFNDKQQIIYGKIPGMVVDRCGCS

Measured: binding

ActRIIa-mFc (from UniProt P27037 21-135) (Fc fusion)
binds: BMP10 | BMP6 | GDF8 | activin B | GDF11
